Test results reported in PMC7819943, “Rice protein-binding microarrays: a tool to detect cis-acting elements near promoter regions in rice”.
The other results are listed elsewhere or left out.

Amino acid sequences for entries named in this document (tags omitted).
UniProt Q0JBA9, entry or part of it: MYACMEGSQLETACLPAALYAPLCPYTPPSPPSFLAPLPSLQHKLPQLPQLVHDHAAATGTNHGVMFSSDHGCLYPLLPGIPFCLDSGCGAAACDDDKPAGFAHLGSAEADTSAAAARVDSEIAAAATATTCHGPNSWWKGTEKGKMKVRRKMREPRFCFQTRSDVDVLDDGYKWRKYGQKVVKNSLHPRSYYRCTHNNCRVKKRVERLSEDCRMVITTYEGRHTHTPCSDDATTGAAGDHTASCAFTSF

target: OsWRKY34 (Oryza sativa, UniProt Q0JBA9 1-250); test: protein-binding microarray (RPBM); PBS, 2% BSA, 51.3 ng/ul salmon testes DNA, 50 uM zinc acetate, 200 nM TF, 25 C, 1 h; high values mean tight binding; conditions: protein: recombinant; tags: N-terminal polyhistidine and DsRed monomer fusion (pET32a); label: CyDye5-dUTP incorporated in the synthesized complementary strand; 3' TTTTT single-stranded linker to array surface; dsDNA, one strand shown
In short: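 The binding signal is fluorescence intensity per array feature (arbitrary units). Readings came from an Axon 4000B scanner after a washed, 2% BSA-blocked, double-stranded custom Agilent array had been incubated for 1 h at 25 °C with 200 nM protein and 50 µM zinc acetate. The protein was a Ni–NTA-purified transcription factor fused N-terminally to polyhistidine and DsRed, expressed in E. coli BL21-CodonPlus.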

Sequence	binding signal
TAATATCCGATGTGACATGCCAAAACTTTACACCCCTAATCGGAGTCACCTAGTGCAG	8330 fluorescence intensity (a.u.)
TCTGCCACCTTTGAAAGGTTCCGTCATCATGCACCAGTTTCGGAGTCACCTAGTGCAG	8450 fluorescence intensity (a.u.)
TGATTTATGAATTATGATTACTAATACTGTTTTTTGTCCTCGGAGTCACCTAGTGCAG	8780 fluorescence intensity (a.u.)
CGCGCCGTGCGCCACTCTGCCAACCGCGCTCCGCCGCCGCCGGAGTCACCTAGTGCAG	8100 fluorescence intensity (a.u.)
TGTAATTAACTTTTTTTGTCTATATTTAATACTCTATATACGGAGTCACCTAGTGCAG	8640 fluorescence intensity (a.u.)
GTCTGCTCCTCTGGTGAAAATTTGTGCTGTTCAAATAATTCGGAGTCACCTAGTGCAG	8370 fluorescence intensity (a.u.)
TTGGGTGCTATCCTGTTCTTGTGTTGTGATTCAATTAATTCGGAGTCACCTAGTGCAG	14400 fluorescence intensity (a.u.)
ACTGCCACTACACACACCTCACAAACCCACAACAAGACGTCGGAGTCACCTAGTGCAG	9500 fluorescence intensity (a.u.)
TAATATATTCCTCGAGGGACATCACTTATTGTTTACGTGTCGGAGTCACCTAGTGCAG	9840 fluorescence intensity (a.u.)
TCTCTTCTGACCACTGCGGGCTGTACCCTCTGCCGGCGCTCGGAGTCACCTAGTGCAG	9250 fluorescence intensity (a.u.)
CCGCCACCCGAATCGCTACGCGCCTTGCCTTTTTACCACCCGGAGTCACCTAGTGCAG	10300 fluorescence intensity (a.u.)
CCTCTTTCTCTCTCCTCAGTCATCTCTCACTCTTCTTCTTCGGAGTCACCTAGTGCAG	8540 fluorescence intensity (a.u.)
CACAACCATTCTCTATTTAATTTCTTCGCTTACTTTCTCTCGGAGTCACCTAGTGCAG	9290 fluorescence intensity (a.u.)
GCTATCCCACATTCCAAACTCCATGTCCAACCATCCAATTCGGAGTCACCTAGTGCAG	9150 fluorescence intensity (a.u.)
ATGTTGACACATCTTAATACTATGAATCTCGTTACATTCGCGGAGTCACCTAGTGCAG	9310 fluorescence intensity (a.u.)
GGGGTTTGACAGTGGGGTGGAGAGGACAAGTAAACAGTGGCGGAGTCACCTAGTGCAG	8860 fluorescence intensity (a.u.)
CAATTCATTTCGTCGTTTAGCGTGCTAGTCTACTTCACCTCGGAGTCACCTAGTGCAG	10700 fluorescence intensity (a.u.)
TCGTCATCATCCTCGCCGCCATCGCCATCGCCATTGCCTACGGAGTCACCTAGTGCAG	9180 fluorescence intensity (a.u.)
CAGATCCCTTTCTTCCTCACGACTCCTGGATTTTTATAAACGGAGTCACCTAGTGCAG	8280 fluorescence intensity (a.u.)
TGTGATATGTTCCTGTGAGCTGTCCCTCATCTAATTACCCCGGAGTCACCTAGTGCAG	8440 fluorescence intensity (a.u.)
GGCGGAGCTCGGGATGTGGGAGGAGGAGGGCTATTTATTCCGGAGTCACCTAGTGCAG	14400 fluorescence intensity (a.u.)

4 entries from above, with each value named:
TAATATATTCCTCGAGGGACATCACTTATTGTTTACGTGTCGGAGTCACCTAGTGCAG
  binding signal: 9840 fluorescence intensity (a.u.)
TCTCTTCTGACCACTGCGGGCTGTACCCTCTGCCGGCGCTCGGAGTCACCTAGTGCAG
  binding signal: 9250 fluorescence intensity (a.u.)
CCGCCACCCGAATCGCTACGCGCCTTGCCTTTTTACCACCCGGAGTCACCTAGTGCAG
  binding signal: 10300 fluorescence intensity (a.u.)
CCTCTTTCTCTCTCCTCAGTCATCTCTCACTCTTCTTCTTCGGAGTCACCTAGTGCAG
  binding signal: 8540 fluorescence intensity (a.u.)

The list continues.

Sequence	binding signal
CACTCGCACTCGCACTCGCACTCGCACCACCAAACGTCGCCGGAGTCACCTAGTGCAG	13500 fluorescence intensity (a.u.)
CATGTCCTTCAAGTTCATATTATCGCATCTTGTTTTTAAGCGGAGTCACCTAGTGCAG	9470 fluorescence intensity (a.u.)
CATGATGCAGTTCACGCACACCGCGCCACCTCCACCGCCTCGGAGTCACCTAGTGCAG	8650 fluorescence intensity (a.u.)
ATTTGGTTTTTACTGTACATTACCAGCGTGTTTTTTTTTTCGGAGTCACCTAGTGCAG	8950 fluorescence intensity (a.u.)
CTATGACGTGTTCTGTTCGGAGGCCTCGATTCCAATTCGACGGAGTCACCTAGTGCAG	8720 fluorescence intensity (a.u.)
GGCTGCGTTTCTAGTGTAGTTCGTTTCGAGTTGACCCTGACGGAGTCACCTAGTGCAG	10000 fluorescence intensity (a.u.)
CGCCCAGATTATTTTTTACTACTACTGAAGCCAAGCACTGCGGAGTCACCTAGTGCAG	8130 fluorescence intensity (a.u.)
ATTGTTTGGGCATTTTCCTAATTTTTCTTCAGATTTTAAACGGAGTCACCTAGTGCAG	8500 fluorescence intensity (a.u.)
TTTGTTTGGGTAGTTCTTTATTTAGGTAGTAGCACAGCTTCGGAGTCACCTAGTGCAG	9830 fluorescence intensity (a.u.)
GGCACATGGTCTTCTTTACCGCTTCCATTATTTCCGTCAGCGGAGTCACCTAGTGCAG	9660 fluorescence intensity (a.u.)
AGGTGGTTTACTATTAATCAGTCTATTGCTGAGATGTACACGGAGTCACCTAGTGCAG	8130 fluorescence intensity (a.u.)
ACTCATTTTACTATGCGTCTCTACCTTTTTCTTCTACCCGCGGAGTCACCTAGTGCAG	9850 fluorescence intensity (a.u.)
TTGCATTCTATTTTTCTTTTTTGTCTTTGATGTTCTTTTGCGGAGTCACCTAGTGCAG	11900 fluorescence intensity (a.u.)
GTTGGAATCCCCTACGAAATCCGGCCGCCGCCTCTGACCTCGGAGTCACCTAGTGCAG	8670 fluorescence intensity (a.u.)
TTTGTTGGAAGTATTGATCTTTTTTCCTTTGCTTTTTGTCCGGAGTCACCTAGTGCAG	9290 fluorescence intensity (a.u.)
CACGTCGCCGCCTGCCTGCTCCGCTCTCCGCCGCTCGCCCCGGAGTCACCTAGTGCAG	8040 fluorescence intensity (a.u.)
TCTGCTTTGTTCTAACTTTTCTGCTTTTCTTGCATGGAGTCGGAGTCACCTAGTGCAG	8340 fluorescence intensity (a.u.)
AGGTTCTATGACAGTATTGCACCCGGTTTTGTCAGCTGACCGGAGTCACCTAGTGCAG	8600 fluorescence intensity (a.u.)
TCCTAATTGAAGGGGATGGGGCAGTCTCTGGTCGACCTCACGGAGTCACCTAGTGCAG	10500 fluorescence intensity (a.u.)
TAAAACAGTTTGACTTTGACTAAAGTCAAAACGTTTTATACGGAGTCACCTAGTGCAG	10700 fluorescence intensity (a.u.)
GAGGTGGAAGAAAGTAGTAACAGGGGCATTTTTCTCCGTTCGGAGTCACCTAGTGCAG	9080 fluorescence intensity (a.u.)

Sequence	binding signal
GGGAGGAGGAGGAGGAGAAGGGCGGCGGGAGGAGGGGCGACGGAGTCACCTAGTGCAG	14000 fluorescence intensity (a.u.)
TCATGCTAACGTCTAACCTCATCGTTATCGTCGTGTCACGCGGAGTCACCTAGTGCAG	9300 fluorescence intensity (a.u.)
CCACCAATTAAACACGTCTATCTTGCCATATATTCCTCACCGGAGTCACCTAGTGCAG	10900 fluorescence intensity (a.u.)
GTGGTCCTCCACTTTCCACACCTGCACCGCTGCTGCAGCACGGAGTCACCTAGTGCAG	8630 fluorescence intensity (a.u.)
TTGATTTTGCTCGTGGTGTGTGTTTGTGTTTGGTATGGTTCGGAGTCACCTAGTGCAG	18400 fluorescence intensity (a.u.)
TTGGTCCAAATTTGTGCACCCTCTCATGCCACTACCGTCACGGAGTCACCTAGTGCAG	8520 fluorescence intensity (a.u.)
CTTTTTCTCTCTCATCAATCTCTCTCTCTCCACATCCATCCGGAGTCACCTAGTGCAG	8160 fluorescence intensity (a.u.)
CCTATATCATCCTTTGATAAGATCGACTGTTTGCTATTTACGGAGTCACCTAGTGCAG	9940 fluorescence intensity (a.u.)
TTGTATTTTTTTTGTTCTCTCTTCATCCTACTCAATTATTCGGAGTCACCTAGTGCAG	12100 fluorescence intensity (a.u.)
TGTCTTATGTTATGTGAGAATACAATCCCTCACCGTGCTTCGGAGTCACCTAGTGCAG	8220 fluorescence intensity (a.u.)
TTTCAACGCAAAAGTTCACCCTTTTTTCTGCTTCCTTTTTCGGAGTCACCTAGTGCAG	8370 fluorescence intensity (a.u.)
ATTCGCCCCAGACACCACATTTCTTGGTACATAGCTAGCTCGGAGTCACCTAGTGCAG	8780 fluorescence intensity (a.u.)
GGGCTATCATCCTTATTGAGTACTCTTGTTGGTTTCTTCTCGGAGTCACCTAGTGCAG	11400 fluorescence intensity (a.u.)
CGGGCGGCTGAGATTCAATGTGGGGCGCGTGGGGTGGCGACGGAGTCACCTAGTGCAG	8650 fluorescence intensity (a.u.)
CATTCATTGTTCTTGTTCTTGTTCTTGCTCTTGCTCTTCTCGGAGTCACCTAGTGCAG	11400 fluorescence intensity (a.u.)
CCTACTTGGGAAGTTGGGTGGGATTGGCGTCGTGTTCGTGCGGAGTCACCTAGTGCAG	8050 fluorescence intensity (a.u.)
GGGATCGCGGAGTTGACCCGTATTGCATGCAGGCAGCTGCCGGAGTCACCTAGTGCAG	8600 fluorescence intensity (a.u.)
ACCGCTCTTTCTTTCCGCCTTATCGGCTCAAGTGGCCGTGCGGAGTCACCTAGTGCAG	11700 fluorescence intensity (a.u.)
TCGACAATGTCACTCCATCATATCATGGCCAAAATATAACCGGAGTCACCTAGTGCAG	8140 fluorescence intensity (a.u.)
TCATTCCGATTTGGTGGGGTTTGAGTTTGATTGATTCTTTCGGAGTCACCTAGTGCAG	19300 fluorescence intensity (a.u.)
TTTGCACCGTCGACGCGTTCCCGCTGGTTTCCGTTTGTTGCGGAGTCACCTAGTGCAG	8190 fluorescence intensity (a.u.)

Sequence	binding signal
GTGTCGTCTCACTCATTTATATCTGTAGTTGCTCGCGGTACGGAGTCACCTAGTGCAG	9550 fluorescence intensity (a.u.)
GAGAACCTTCGTCGTAGTAGCCGCGAGCGCACATCCTCATCGGAGTCACCTAGTGCAG	9310 fluorescence intensity (a.u.)
GAGGGTGTGATTTTCCGGTATCGTTTTTGAGAGAGTTGAGCGGAGTCACCTAGTGCAG	9580 fluorescence intensity (a.u.)
CAATTTCTCCTTGCACGCTACGTACACACCAACGGCCCAGCGGAGTCACCTAGTGCAG	8260 fluorescence intensity (a.u.)
ATGGGTAAAGGGTTATGTCACATTTTTATGACGGGTTCCACGGAGTCACCTAGTGCAG	10400 fluorescence intensity (a.u.)
GGGCGGGTTTGGATTTTTATTTGGTTTTCCTATGGAGTCCCGGAGTCACCTAGTGCAG	17800 fluorescence intensity (a.u.)
CCATCTGCACAAGTACCCTCCCATCCAGCAGGCCCCACCACGGAGTCACCTAGTGCAG	8480 fluorescence intensity (a.u.)
ACCAATTTGATCATTAACTTTTATACCAACATGACCACATCGGAGTCACCTAGTGCAG	10300 fluorescence intensity (a.u.)
GCTTAGACCAACACCTCTGACGGCCTTCTATTAACTTGCCCGGAGTCACCTAGTGCAG	8960 fluorescence intensity (a.u.)
CCGGTCTCTCTCTTGGTGATTGATTGATTATCGTTTTGACCGGAGTCACCTAGTGCAG	12000 fluorescence intensity (a.u.)
TTTTTTTCTCCTTTCCTTCTTCTCTCTCTCTCTTTTTTTTCGGAGTCACCTAGTGCAG	8870 fluorescence intensity (a.u.)
AAATGGATGTTAAACTCGGTCTACCCCGTATGTTTCCTCACGGAGTCACCTAGTGCAG	8480 fluorescence intensity (a.u.)
TCCCTTGTACACCTGTAACCACTCCACAGTCCACCCCAACCGGAGTCACCTAGTGCAG	10900 fluorescence intensity (a.u.)
CTTCCTACTACTTTTAACCCTGTCAAGTGTCGACTGGACACGGAGTCACCTAGTGCAG	8490 fluorescence intensity (a.u.)
CTTCTCTTATTGTTTGTGTCATTTTCATTTATGTCCTTGTCGGAGTCACCTAGTGCAG	9800 fluorescence intensity (a.u.)
ACTGTACTGAGTGCTATAGCACGCATCTATGAACCTTTCCCGGAGTCACCTAGTGCAG	8490 fluorescence intensity (a.u.)
GTCCGGATCTCCGCTCTTTGTCGAGTCGACTCCTATTCCTCGGAGTCACCTAGTGCAG	8470 fluorescence intensity (a.u.)
AGGGGAGGCGTCGCTTGGTCGCCATCTTCGTCGTTTGCTTCGGAGTCACCTAGTGCAG	9720 fluorescence intensity (a.u.)
TATAGTATGTTTCAGCTGTCTGCGGTTAGTATTTGATGTTCGGAGTCACCTAGTGCAG	9360 fluorescence intensity (a.u.)
TTCTTTCCCTAATCTCCTGTGCATGTTGTCGTTCCATCTGCGGAGTCACCTAGTGCAG	10300 fluorescence intensity (a.u.)
ATCCTCTTTCATCTCATCCGTCCATCCACCATTTCATTTACGGAGTCACCTAGTGCAG	10200 fluorescence intensity (a.u.)
